Measured values from article PMC10580381 (ACS Pharmacology & Translational Science, 2023).

Tested on: total HDAC activity from the H1975 nuclear extract
Conditions: 10 μM (highest concentration tested)

Fc1ccc(C(c2ccc(F)cc2)N2CCN(C/C=C/c3ccccc3)CC2)cc1 [flunarizine]
inhibition of total HDAC activity: ~75%
